The record followed here is patent publication US20180105596A1 (ELSALYS BIOTECH, published 2018).

Results are given in words; binding and its absence hold for the method and conditions named. Some results given as binding are weak or reduced against the parent protein; the word gives no strength. For part of these data: Where a sequence is shown, tags or fusion partners need not be part of it.

For experiment [1], the target named is T1, fibronectin type III domain FNIII-1 of human Tyro3 (human) (UniProt Q06418).
T1 sequence: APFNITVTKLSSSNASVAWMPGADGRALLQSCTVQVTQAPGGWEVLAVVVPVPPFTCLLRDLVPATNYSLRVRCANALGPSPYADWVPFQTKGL
As to the kind of experiment: double sandwich ELISA on captured fragments of hTyro3 ECD. (In general: ELISA stands for enzyme-linked immunosorbent assay.)

The target of experiment [2] is T2, Tyro3 ECD Ig1-Ig2-FNIII 1 (human) (UniProt Q06418).
T2 sequence (fragment): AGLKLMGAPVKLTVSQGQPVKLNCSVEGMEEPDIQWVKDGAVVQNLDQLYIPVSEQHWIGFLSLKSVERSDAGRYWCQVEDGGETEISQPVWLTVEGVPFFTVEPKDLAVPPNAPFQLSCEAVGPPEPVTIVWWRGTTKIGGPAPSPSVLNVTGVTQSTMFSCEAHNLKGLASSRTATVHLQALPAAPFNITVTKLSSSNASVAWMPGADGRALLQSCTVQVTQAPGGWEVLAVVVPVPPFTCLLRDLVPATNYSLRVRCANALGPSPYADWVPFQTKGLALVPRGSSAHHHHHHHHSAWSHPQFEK
The experiment is described as follows: sandwich ELISA, Strep-tagged fragment captured on StrepMAB plate, scFv 10 µg/mL (Table 17), anti-FLAG-HRP.

Experiment [3] concerns the target T3, cynomolgus Tyro3 ECD, His-Strep tagged.
T3 construct: also called cyno TYRO3 ECD 8hisstrep
T3 extracellular domain: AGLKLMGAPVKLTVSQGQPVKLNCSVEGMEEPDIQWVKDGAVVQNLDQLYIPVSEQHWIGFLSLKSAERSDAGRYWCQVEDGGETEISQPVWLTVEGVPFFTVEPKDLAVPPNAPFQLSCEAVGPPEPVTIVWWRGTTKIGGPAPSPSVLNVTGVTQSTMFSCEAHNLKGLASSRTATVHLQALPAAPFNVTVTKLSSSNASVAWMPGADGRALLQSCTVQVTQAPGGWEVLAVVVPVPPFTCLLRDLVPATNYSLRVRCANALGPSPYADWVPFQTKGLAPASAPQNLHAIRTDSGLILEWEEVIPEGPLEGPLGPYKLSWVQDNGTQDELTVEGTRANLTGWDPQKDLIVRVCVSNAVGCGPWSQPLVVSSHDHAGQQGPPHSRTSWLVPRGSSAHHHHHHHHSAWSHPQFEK
As to the kind of experiment: sandwich ELISA, Strep-tagged cynomolgus Tyro3 ECD captured on StrepMAB plate, IgG 3-fold from 3 µg/mL, anti-human IgG1-HRP. As to the method: A double sandwich ELISA was developed. This assay consisted in measuring the binding of the anti-Tyro3 antibodies to be tested on immobilized strep-tagged entire human Tyro3 ECD captured directly on ELISA plate pre-coated with an anti-strep mAb (StrepMAB-Immo coated microplates from IBA biotech). Briefly, the 96 wells of StrepMAB-Immo coated microplate were washed three times with 300 μL of the PBS Tween 0.2% (referred as ELISA washing solution). The capture of an excess of purified strep tagged hTyro3 ECD protein was achieved by a one hour incubation at room temperature. In these experiments, 3 μg of purified protein diluted in PBS, BSA 1% (referred as ELISA diluent solution) were immobilized per well. The wells were washed three times with 300 μL of the washing solution. The non-specific binding sites on the well surface were blocked during 60 min at room temperature with 200 μL/well of blocking solution (PBS, BSA 3%). The wells were washed five times with 300 μL of the washing solution. Then, 100 μl (in duplicates) of the different concentrations of anti-Tyro3 antibodies to be tested diluted in ELISA diluent solution, were added per well and allowed to incubate during 1 hour at room temperature. An Irrelevant control IgG2656 was also added in this experiment. For anti-Tyro3 antibodies in the ScFv format, experiments were performed with 6 concentrations in duplicates (FIG. 3A). […]

B1: anti-Tyro3 scFv 2718 (scFv, V domains shown)
VH: EVQLVQSGADVKKPGASLTISCQASGYTFTDYWISWVRQKPGKGLEWMGHINPMRSTTTYGPSFQGHVTISADRSTATAYLQWHSLEASDTAMYYCVRNDNHDDYTYTDDWGPGTLVTVSS
VL: SYELTQPPSVSVSPGQTARITCSGDALPKKYAYWYQQKSGQAPVLVIYEDTKRHSGIPERFSGSSSGTMATLTISGAQVEDEADYYCYSAEHRGNYAVFGGGTKLTVL
notes: Tested as a single-chain Fv made in E. coli
On to B1, for which the binding entry in experiment [1] and in experiment [2] was “binds” throughout.

B2: IgG2413 (antibody, V domains shown)
VH: EVQLVQSGADVKKPGASLTISCQASGYTFTDYWISWVRQKPGKGLEWMGRIHTYQSSTRYGPSFQGHVTISADRSTATAYLQWRSLEASDTAMYYCVRHHSTTTANPYSSWGPGTLVTVSS
VL: SYELTQPPSVSVSPGQTARITCSGDALPKKYAYWYQQKSGQAPVLVIYEDDKRLSGIPERFSGSSSGTMATLTISGAQVEDEADYYCYSTEINGNYAVFGGGTKLTVL
notes: also called IGX2413
As to B2, the binding entry in experiment [3] is on record as “binds”.
